Literature values, collected in publication PMC5955586, “Transport of enniatin B and enniatin B1 across the blood-brain barrier and hints for neurotoxic effects in cerebral cells” (PLoS ONE, 2018).

Test system: PBCEC
Details: cited from earlier work

## CN1C(=O)CN=C(c2ccccc2)c2cc(Cl)ccc21 [diazepam]
  Papp: 12.7 ×10⁻⁶ cm/s
